Further values from the same series stand in other lists.
Experiments:
Experiment in all cases: concentration in plasma after dosing
[1] = tested on: Mouse; conditions: 1.5 h; dosed: 2-Hydroxy-4-methoxybenzophenone; 250 mg/kg; oral; Male; B6C3F1
[2] = tested on: Rat; conditions: dosed: 2-Hydroxy-4-methoxybenzophenone, 8 mg/kg, iv, Male, F344
[3] = tested on: Mouse; conditions: dosed: 2-Hydroxy-4-methoxybenzophenone, 100 mg/kg, oral, Male, B6C3F1
[4] = tested on: Mouse; conditions: 0.5 h; dosed: 2-Hydroxy-4-methoxybenzophenone; 250 mg/kg; oral; Male; B6C3F1
[5] = tested on: Mouse; conditions: 6 h; dosed: 2-Hydroxy-4-methoxybenzophenone; 250 mg/kg; oral; Male; B6C3F1
[6] = tested on: Rat; conditions: 2.5 min; dosed: 2-Hydroxy-4-methoxybenzophenone; 100 mg/kg; oral; Male; F344
[7] = tested on: Rat; conditions: dosed: 2-Hydroxy-4-methoxybenzophenone, 500 mg/kg, oral, Male, F344
[8] = tested on: Mouse; conditions: 5 min; dosed: 2-Hydroxy-4-methoxybenzophenone; 500 mg/kg; oral; Female; B6C3F1
[9] = tested on: Mouse; conditions: 4 h; dosed: 2-Hydroxy-4-methoxybenzophenone; 500 mg/kg; oral; Male; B6C3F1
[10] = tested on: Rat; conditions: dosed: 2-Hydroxy-4-methoxybenzophenone, 250 mg/kg, oral, Female, F344
[11] = tested on: Rat; conditions: dosed: 2-Hydroxy-4-methoxybenzophenone, 100 mg/kg, oral, Female, F344
[12] = tested on: Mouse; conditions: 12 h; dosed: 2-Hydroxy-4-methoxybenzophenone; 50 mg/kg; iv; Female; B6C3F1
[13] = tested on: Rat; conditions: 1.5 h; dosed: Perfluorohexanoic Acid; 40 mg/kg; Male; F344
[14] = tested on: Rat; conditions: 1 h; dosed: Perfluorohexanoic Acid; 40 mg/kg; oral; Male; Harlan Sprague Dawley
[15] = tested on: Rat; conditions: dosed: Perfluorohexanoic Acid, 40 mg/kg, oral, Female, Harlan Sprague Dawley
[16] = tested on: Rat; conditions: dosed: Perfluorohexanoic Acid, 40 mg/kg, Male, F344
[17] = tested on: Rat; conditions: dosed: Perfluorohexanoic Acid, 160 mg/kg, oral, Female, Harlan Sprague Dawley
[18] = tested on: Rat; conditions: dosed: Perfluorohexanoic Acid, 80 mg/kg, oral, Female, Harlan Sprague Dawley
[19] = tested on: Rat; conditions: dosed: Perfluorohexanoic Acid, 40 mg/kg, Male, F344; remark: listed apart in the source
[20] = tested on: Rat; conditions: 1 h; dosed: Perfluorohexanoic Acid; 80 mg/kg; oral; Female; Harlan Sprague Dawley
[21] = tested on: Rat; conditions: 0.5 h; dosed: 2-Hydroxy-4-methoxybenzophenone; 8 mg/kg; iv; Female; F344
[22] = tested on: Mouse; conditions: 12 h; dosed: 2-Hydroxy-4-methoxybenzophenone; 50 mg/kg; iv; Male; B6C3F1
[23] = tested on: Rat; conditions: dosed: 2-Hydroxy-4-methoxybenzophenone, 250 mg/kg, oral, Male, F344
[24] = tested on: Mouse; conditions: 8 h; dosed: 2-Hydroxy-4-methoxybenzophenone; 500 mg/kg; oral; Female; B6C3F1
[25] = tested on: Mouse; conditions: 0.5 h; dosed: 2-Hydroxy-4-methoxybenzophenone; 250 mg/kg; oral; Male; B6C3F1; remark: listed apart in the source
[26] = tested on: Rat; conditions: dosed: 2-Hydroxy-4-methoxybenzophenone, 500 mg/kg, oral, Female, F344
[27] = tested on: Mouse; conditions: 8 h; dosed: 2-Hydroxy-4-methoxybenzophenone; 500 mg/kg; oral; Female; B6C3F1; remark: listed apart in the source
[28] = tested on: Mouse; conditions: 0.5 h; dosed: 2-Hydroxy-4-methoxybenzophenone; 50 mg/kg; iv; Male; B6C3F1
[29] = tested on: Rat; conditions: dosed: 2-Hydroxy-4-methoxybenzophenone, 500 mg/kg, oral, Female, F344; remark: listed apart in the source
[30] = tested on: Mouse; conditions: 0.5 h; dosed: 2-Hydroxy-4-methoxybenzophenone; 500 mg/kg; oral; Female; B6C3F1
[31] = tested on: Mouse; conditions: 1 h; dosed: 2-Hydroxy-4-methoxybenzophenone; 500 mg/kg; oral; Male; B6C3F1
[32] = tested on: Mouse; conditions: 7 h; dosed: 2-Hydroxy-4-methoxybenzophenone; 250 mg/kg; oral; Male; B6C3F1
[33] = tested on: Rat; conditions: 2 h; dosed: 2-Hydroxy-4-methoxybenzophenone; 100 mg/kg; oral; Male; F344
[34] = tested on: Rat; conditions: 0.25 h; dosed: 2-Hydroxy-4-methoxybenzophenone; 8 mg/kg; iv; Female; F344
[35] = tested on: Rat; conditions: 2 h; dosed: 2-Hydroxy-4-methoxybenzophenone; 250 mg/kg; oral; Female; F344

COc1ccc(C(=O)c2ccccc2)c(O)c1 [2-Hydroxy-4-methoxybenzophenone]
Conditions	concentration in plasma [ng/mL]
[1]	57.4
[4]	246
[5]	32.8
[6]	31.4
[8]	738
[9]	88.8
[12]	129000

Conditions	concentration in plasma [ng/mL]
[2], 1.5 h	72.5
[2], 12 h	53.5
[3], 0.5 h	53.7
[3], 0.75 h	52.2
[3], 1 h	36.8
[3], 1.5 h	30.2
[3], 4 h	19.9
[3], 5 h	18.2
[3], 5 min	26.1
[3], 6 h	14.3
[7], 0.5 h	163
[7], 12 h	46.5
[10], 1.5 h	567
[10], 8 h	18.6
[11], 2 h	16.6
[11], 5 min	12.7

O=C(O)C(F)(F)C(F)(F)C(F)(F)C(F)(F)C(F)(F)F [Perfluorohexanoic Acid]
Conditions	concentration in plasma [ng/mL]
[13]	6320
[14]	27100
[20]	78000

Conditions	concentration in plasma [ng/mL]
[15], 0.5 h	41700
[15], 9 h	218
[16], 3 h	1210
[16], 5 min	270000
[17], 3 h	154000
[17], 5 min	74200
[18], 5 min	61500
[18], 9 h	711
[19], 0.25 h	209000
[19], 6 h	2450

O=C(c1ccccc1)c1ccc(O)cc1O [2,4-Dihydroxybenzophenone]
Conditions	concentration in plasma [ng/mL]
[21]	50.4
[22]	75.5
[24]	131
[25]	1330
[27]	80.2
[28]	615
[30]	1830
[31]	638
[32]	138
[33]	48
[34]	103
[35]	230

concentration in plasma [ng/mL]
Conditions	1 h	2 h	5 min	6 h
[23]	283	–	–	107
[26]	–	561	41.2	–
[29]	–	456	71.8	–

Source: EPA's CvTdb concentration-time database
